{"sequences": {"note": "Amino acid sequences for entries named in this document (tags omitted). Residues count along the entry.", "UniProt Q05320, residues 33-650": "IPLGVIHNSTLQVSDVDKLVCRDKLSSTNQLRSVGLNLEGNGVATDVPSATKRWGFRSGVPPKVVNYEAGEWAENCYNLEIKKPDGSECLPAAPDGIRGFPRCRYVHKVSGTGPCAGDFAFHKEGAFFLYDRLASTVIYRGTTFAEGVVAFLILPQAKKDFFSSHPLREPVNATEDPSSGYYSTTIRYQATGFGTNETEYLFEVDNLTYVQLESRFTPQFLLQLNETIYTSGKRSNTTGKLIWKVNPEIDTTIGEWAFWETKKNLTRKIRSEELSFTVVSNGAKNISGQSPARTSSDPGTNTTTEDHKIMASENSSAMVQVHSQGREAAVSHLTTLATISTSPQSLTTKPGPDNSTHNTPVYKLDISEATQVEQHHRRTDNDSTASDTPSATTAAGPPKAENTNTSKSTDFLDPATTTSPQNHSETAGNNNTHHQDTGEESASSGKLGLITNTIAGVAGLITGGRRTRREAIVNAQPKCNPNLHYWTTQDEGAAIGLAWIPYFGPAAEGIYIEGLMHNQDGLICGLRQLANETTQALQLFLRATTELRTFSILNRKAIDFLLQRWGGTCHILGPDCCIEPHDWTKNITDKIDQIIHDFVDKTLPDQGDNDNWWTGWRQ"}, "source": "patent US20190216949A1", "binders": {"B1": {"name": "monoclonal antibody 2G4 (murine IgG2a, expressed in mice from AAV6.2FF-2G4) (antibody, V domains shown)", "VH": "GGGLMQPGGSMKLSCVASGFTFSNYWMNWVRQSPEKGLEWVAEIRLKSNNYATHYAESVKGRFTISRDDSKRSVYLQMNTLRAEDTGIYYCTRGNGNYRAMDYWGQGTSVTVSS", "VL": "ASLSVSVGETVSITCRASENIYSSLAWYQQKQGKSPQLLVYSATILADGVPSRFSGSGSGTQYSLKINSLQSEDFGTYYCQHFWGTPYTFGGGTKLEIKR"}}, "key": {"[1]": {"molecular_target": "Ebola virus glycoprotein (EBOV GP) (Ebola virus (EBOV)) (UniProt Q05320)", "assay": "EBOV GP ELISA of serum"}, "[2]": {"molecular_target": "Ebola virus glycoprotein (EBOV GP) (Ebola virus (EBOV)) (UniProt Q05320)", "assay": "EBOV GP ELISA of serum at 1:100 dilution after IM AAV-2G4"}}, "note": "No constants are given. Whether binding was seen depends on the method and setting. Some entries that bind do so weakly or less than the wild type.", "data": [{"binder": "B1", "values": [{"measurement": "binding", "setting": "[1]", "value": "binds"}, {"measurement": "binding", "setting": "[2]", "value": "binds"}]}]}
